From the supplement of paper PMC9135407
“And” between values parts separate entries of the source, which are not always exact repeats. Identical values can stand only once. Counter-ions that a name gives are not always drawn. ± gives the standard deviation of the averaged measurements. The list shows a part of the results. Plates or batches differ in their baseline, so values are only roughly comparable.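 Primary human stellate myofibroblasts activated in culture; inactivation shown by regained lipid droplets. Readout: fraction of Hoechst-counted cells exceeding a per-plate Bodipy threshold, duplicate wells, each plate with DMSO negative and nortriptyline positive controls. Hits: control-normalized score beyond the plate's top-tenth-percentile nortriptyline wells, or among its three best wells. Final well concentrations unstated.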

System: primary human hepatic stellate cells (donor 1)
Test: percent Bodipy-positive cells; higher = more lipid droplet accumulation
Details: 48 h
Method: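 Primary lipid accumulation screen in primary human hepatic stellate cell myofibroblasts (donor 1, passage 8) in 384-well plates. 100 nL of library compound was pin-transferred into 30 µL medium in duplicate, and cells were treated for 48 h. The 'Scaled' score combines distance from plate baseline, toxicity and reproducibility penalties, and is normalised to nortriptyline (positive) and DMSO (negative) controls on each plate. A hit is defined as scaled >0.85 or among the top 3 wells per plate.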

[1] = library stock concentration: 10 mM
[2] = library stock concentration: 1 mM
[3] = library stock concentration: 3.33 mM

C[C@@H](CN1CCC(Cc2ccccc2)CC1)[C@@H](O)c1ccc(O)cc1 [Ro 25-6981 maleate]
percent Bodipy-positive cells [1]: 28.7 ± 8.7%

C[C@@H](CN1CCC(Cc2ccccc2)CC1)[C@@H](O)c1ccc(O)cc1 [Ro 25-6981 hydrochloride]
percent Bodipy-positive cells [1]: 36.8 ± 1.6%

CCCCC[C@H](O)CC[C@H]1[C@H](O)CC(=O)[C@@H]1CCCCCCC(=O)O [13,14-Dihydro-PGE1]
percent Bodipy-positive cells [2]: 6.08 ± 4.5%

CNc1nc(Nc2cn(C(C)(C)C#N)nc2C)ncc1C(F)(F)F
percent Bodipy-positive cells [3]: 23.4 ± 11%
percent Bodipy-positive cells [1]: 47.8 ± 5.9%

CC1CC(OC(=O)c2ccccc2O)CC(C)(C)C1 (stereo unspecified) [Homosalate]
percent Bodipy-positive cells: 7.61 ± 0.2%
percent Bodipy-positive cells (library stock concentration: 7.6 mM): 34.8 ± 27%

N[C@@H](CS(=O)O)C(=O)O [L-Cysteinesulfinic acid]
percent Bodipy-positive cells [1]: 4.6 ± 1.7%

N[C@@H](CS(=O)O)C(=O)O [L-Cysteinesulfinic Acid]
percent Bodipy-positive cells [1]: 50.9 ± 20%

O=C1Nc2ccccc2/C1=C\c1c(Cl)[nH]c2ccccc12
percent Bodipy-positive cells (library stock concentration: 80 uM): 13.2 ± 6.2%
percent Bodipy-positive cells (library stock concentration: 400 uM): 7.26 ± 1.4%
percent Bodipy-positive cells (library stock concentration: 2 mM): 9.51 ± 0.98%
percent Bodipy-positive cells [1]: 37.8 ± 9.6%

CCCCC/C=C/C=C1/C(=O)C=C[C@@H]1C/C=C\CCCC(=O)O [15-deoxy-.DELTA.12,14-Prostaglandin J2]
percent Bodipy-positive cells [2]: 20.9% and 12.9%

NC[C@@H]1O[C@@H](O[C@H]2[C@H](O)[C@@H](O[C@H]3O[C@H](CO)[C@@H](O)[C@H](N)[C@H]3O)[C@H](N)C[C@@H]2N)[C@@H](O)[C@H](O)[C@H]1O [Kanamycin A sulfate]
percent Bodipy-positive cells: 49.8 ± 20%

NC[C@@H]1O[C@@H](O[C@H]2[C@H](O)[C@@H](O[C@H]3O[C@H](CO)[C@@H](O)[C@H](N)[C@H]3O)[C@H](N)C[C@@H]2N)[C@@H](O)[C@H](O)[C@H]1O [Kanamycin a sulfate]
percent Bodipy-positive cells [1]: 17 ± 3.8%

Nc1nc(-c2ccc(Cl)c(Cl)c2)c(-c2ccncc2)s1 [CGH 2466 dihydrochloride]
percent Bodipy-positive cells [1]: 8.21 ± 0.3%

COCCCN1CCC(NC(=O)c2cc(Cl)c(N)c3c2OCC3)CC1 [Prucalopride Succinat]
percent Bodipy-positive cells [3]: 13.6 ± 1.4%
percent Bodipy-positive cells [1]: 33.89 ± 0.11%

COCCCN1CCC(NC(=O)c2cc(Cl)c(N)c3c2OCC3)CC1 [Prucalopride]
percent Bodipy-positive cells [3]: 17 ± 13%
percent Bodipy-positive cells [1]: 31.8 ± 20%

N[C@@H](Cc1cc(I)c(Oc2ccc(O)c(I)c2)c(I)c1)C(=O)O
percent Bodipy-positive cells [1]: 20.7 ± 4.9%

N[C@@H](Cc1cc(I)c(Oc2ccc(O)c(I)c2)c(I)c1)C(=O)O [Liothyronine (l- isomer) sodium]
percent Bodipy-positive cells (library stock concentration: 3 mM): 16.3 ± 7.4%

N[C@@H](Cc1cc(I)c(Oc2ccc(O)c(I)c2)c(I)c1)C(=O)O [Liothyronine]
percent Bodipy-positive cells: 10.6 ± 2.6%
percent Bodipy-positive cells (library stock concentration: 3.1 mM): 25.1 ± 19%

N[C@@H](Cc1cc(I)c(Oc2ccc(O)c(I)c2)c(I)c1)C(=O)O [Liothyronine Sodium]
percent Bodipy-positive cells [3]: 7.11 ± 3.4%
percent Bodipy-positive cells [1]: 29.9 ± 11%

N[C@@H](Cc1cc(I)c(Oc2ccc(O)c(I)c2)c(I)c1)C(=O)O [Liothyronine sodium]
percent Bodipy-positive cells [1]: 39.2 ± 5.7%

Cc1cc(CN2CCN(c3c(Br)cnc4nc(-c5ccc(N6CCN(C)CC6)cc5)[nH]c34)CC2)no1
percent Bodipy-positive cells [1]: 89.81 ± 0.55%

CN(C)C(=O)[C@H](O)[C@H](Cc1ccccc1)NC(=O)c1cc2cc(Cl)ccc2[nH]1
percent Bodipy-positive cells [3]: 9.77 ± 1.2%

CC1(C(=O)O)NCCc2cc(O)c(O)cc21 (stereo unspecified) [Salsolinol-1-carboxylic acid]
percent Bodipy-positive cells [1]: 4.71 ± 0.48%

Cl/C(=C\n1cncn1)c1ccc(Cl)cc1Cl [Loreclezole hydrochloride]
percent Bodipy-positive cells [1]: 6.03 ± 1.1%

CCC(=O)NC1Cc2ccccc2C(c2ccccc2)C1 (stereo unspecified)
percent Bodipy-positive cells [1]: 8.99 ± 4.2%

O=C(Oc1cc(S(=O)(=O)c2ccccc2)ccc1[N+](=O)[O-])c1ccc(Cl)cc1
percent Bodipy-positive cells [3]: 32 ± 4.9%
percent Bodipy-positive cells [1]: 26.2 ± 4%

O=C(O)/C=C\C(=O)O.O=C(O)/C=C\C(=O)O.c1cc(CN2CCCCC2)cc(OCCCNc2nc3ccccc3s2)c1 [Zolantidine dimaleate]
percent Bodipy-positive cells [1]: 79.1 ± 3.5%

COc1ccc(C2CC(=O)c3c(O)cc(OC4OC(COC5OC(C)C(O)C(O)C5O)C(O)C(O)C4O)cc3O2)cc1OC (stereo unspecified) [Methyl-Hesperidin]
percent Bodipy-positive cells [3]: 7.35 ± 3.5%
percent Bodipy-positive cells [1]: 16 ± 1%

OCC(O)CCO/N=C1\C(c2c(O)[nH]c3ccccc23)=Nc2ccccc21 (stereo unspecified) [Indirubin Derivative E804]
percent Bodipy-positive cells [3]: 14.8 ± 6.1%

Cc1ccc(=O)n(-c2ccccc2)c1 [Pirfenidone]
percent Bodipy-positive cells [3]: 12.5 ± 7.2%

CS(=O)(=O)c1ccc(-n2nc(C(F)(F)F)cc2-c2ccc(F)cc2)cc1
percent Bodipy-positive cells [1]: 32.7 ± 12%

OCCCNc1cc(-c2ccnc(Nc3cccc(Cl)c3)n2)ccn1
percent Bodipy-positive cells [1]: 83.7 ± 1.6%

O=C1C=CC(=O)C2=C1C1c3ccccc3C2c2ccccc21
percent Bodipy-positive cells [1]: 89.2 ± 4.3%

CN1CCC(=C2c3ccccc3Sc3ccccc32)CC1 [Pimethixene maleate]
percent Bodipy-positive cells: 71.2 ± 0.76%
percent Bodipy-positive cells [1]: 74.6 ± 0.96%

Nc1c2ccccc2nc2ccccc12 [Aminacrine]
percent Bodipy-positive cells [1]: 76.45 ± 0.53%

CCCCCCCC/C=C\CCCCCCCC(N)=O [9,10-Octadecenoamide]
percent Bodipy-positive cells [2]: 9.56 ± 3.7%

CCCCCCCC/C=C\CCCCCCCC(N)=O [Oleamide]
percent Bodipy-positive cells [2]: 11.7 ± 8.6%
percent Bodipy-positive cells [1]: 6.94 ± 0.35%

Br.CN1CCC[C@@H]1Cc1c[nH]c2ccc(CCS(=O)(=O)c3ccccc3)cc12 [Eletriptan hydrobromide]
percent Bodipy-positive cells [1]: 89.2 ± 5.6%

NC(=O)CCCCC1CCSS1 (stereo unspecified)
percent Bodipy-positive cells [1]: 39.3 ± 8.3%

C=C(C)[C@H]1CC=C(C)CC1
percent Bodipy-positive cells [1]: 34.7 ± 4%

CC(C)NC[C@@H](O)COc1ccc(CC(N)=O)cc1 [(R)-(+)-Atenolol]
percent Bodipy-positive cells: 7.05 ± 0.093%

NS(=O)(=O)c1cc2c(cc1C(F)(F)F)NCNS2(=O)=O [Hydroflumethiazide]
percent Bodipy-positive cells: 28.4 ± 3%
percent Bodipy-positive cells (library stock concentration: 6 mM): 2.63 ± 0.91%
percent Bodipy-positive cells [1]: 20.04 ± 0.13%
